From publication PMC11360180, “Enhancement of Antimicrobial Function by L/D-Lysine Substitution on a Novel Broad-Spectrum Antimicrobial Peptide, Phylloseptin-TO2: A Structure-Related Activity Research Study” (Pharmaceutics, 2024)

Key:
[1] = system: Gram-negative; assay: GM MIC and therapeutic index
[2] = system: Gram-positive; assay: GM MIC and therapeutic index
[3] = system: Yeast; conditions: HC10 / GM MIC

Compound	TI Value under HC10 (G−) [1]	TI Value under HC10 (G+) [2]	TI Value under HC10 (Yeast) [3]
FLSLIPHAISAVSALAKHL-NH2 [PSTO2, phylloseptin-TO2]	0.17	5.45	–
FLSLIPKAISAVSALAKKL-NH2 [Peptide 18K]	1.29	7.35	–
CC[C@H](C)[C@H](NC(=O)[C@H](C)NC(=O)[C@@H](CCCCN)NC(=O)[C@@H]1CCCN1C(=O)[C@@H](NC(=O)[C@H](CC(C)C)NC(=O)[C@H](CO)NC(=O)[C@H](CC(C)C)NC(=O)[C@@H](N)Cc1ccccc1)[C@@H](C)CC)C(=O)N[C@@H](CCCCN)C(=O)N[C@@H](C)C(=O)N[C@H](C(=O)N[C@@H](CCCCN)C(=O)N[C@@H](C)C(=O)N[C@@H](CC(C)C)C(=O)N[C@@H](C)C(=O)N[C@@H](CCCCN)C(=O)N[C@H](CCCCN)C(=O)N[C@@H](CC(C)C)C(N)=O)C(C)C [SR2D10] (H-FLSLIP[dK]AIKAVKALAK[dK]L-NH2)	9.41	75.24	1.18
CC[C@H](C)[C@H](NC(=O)[C@H](C)NC(=O)[C@@H](CCCCN)NC(=O)[C@@H]1CCCN1C(=O)[C@@H](NC(=O)[C@H](CC(C)C)NC(=O)[C@H](CO)NC(=O)[C@H](CC(C)C)NC(=O)[C@@H](N)Cc1ccccc1)[C@@H](C)CC)C(=O)N[C@@H](CCCCN)C(=O)N[C@@H](C)C(=O)N[C@H](C(=O)N[C@@H](CO)C(=O)N[C@@H](C)C(=O)N[C@@H](CC(C)C)C(=O)N[C@@H](C)C(=O)N[C@@H](CCCCN)C(=O)N[C@@H](CCCCN)C(=O)N[C@@H](CC(C)C)C(N)=O)C(C)C [SRD7] (H-FLSLIP[dK]AIKAVSALAKKL-NH2)	11.16	74.78	2.34
FLSLIPKAIKAVKALAKKL-NH2 [SR2]	1.92	3.27	0.2
FLSLIPKAISAVSALAKHL-NH2 [Peptide 7K]	0.69	5.49	–
FLSLIPKAIKAVSALAKKL-NH2 [SR]	3.15	6.3	–

Where a SMILES comes first, the peptide text is derived from it. Where no end group is shown, it is not given here. [ ]: non-standard residue; d: D form.
